{
  "sequences": {"note": "The chains behind the UniProt entries cited, without tags or fusion partners.", "UniProt Q9UW86": "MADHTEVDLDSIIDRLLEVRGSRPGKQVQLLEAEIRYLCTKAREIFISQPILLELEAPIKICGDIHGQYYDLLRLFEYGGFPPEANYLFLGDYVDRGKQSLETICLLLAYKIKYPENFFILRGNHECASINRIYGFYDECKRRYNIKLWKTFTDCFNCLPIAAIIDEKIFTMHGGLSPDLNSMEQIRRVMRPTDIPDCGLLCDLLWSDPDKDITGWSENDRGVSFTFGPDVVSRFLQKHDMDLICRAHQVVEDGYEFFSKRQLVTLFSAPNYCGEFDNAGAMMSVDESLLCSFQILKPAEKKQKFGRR"},
  "source": "paper PMC8262944",
  "target": "eIF2γ::V5 (C-terminal V5-tagged eIF2γ, N. crassa NCU02810) (N. crassa) (UniProt Q7SEK4)",
  "experiment": "co-IP; anti-V5 immunoprecipitation from N. crassa cell extracts (WT, eIF2γ::v5, eIF2γ^Δ2-62::v5 strains) on magnetic Dynabeads; Western blots of the IP with anti-P-eIF2α, total eIF2α, V5 and PPP-1 antibodies",
  "note": "These are yes or no findings as the source states them, for the method shown. In cells and extracts the contact can be indirect.",
  "data": [
    {"substance": "PPP-1 phosphatase (N. crassa NCU00043, homolog of yeast GLC7) (from UniProt Q9UW86 1-308) (enzyme)", "values": [
      {"measurement": "binding", "result": "no binding"}
    ]}
  ]
}
